In the supplement of paper PMC12823440, “Inhibitors supercharge kinase turnover through native proteolytic circuits” (Nature, 2025):
Counter-ions that a name gives are not always drawn. The list shows a part of the results. The calls rarely recur for the same compound in another form.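 Kinases were expressed as nanoluciferase fusions in K562 cells and luminescence was read every 4 h between 2 and 18 h as percent of control, DMSO set to 100% and a positive control to 0%. A time point counts as decreased when the signal drops significantly (2 sigma). The hit call is the authors' own, does not follow from the count of time points alone, and its rule is not shown.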

By UniProt entry, the sequences of proteins in these tests, tags left out. Where a name states a change or a piece, a line headed by the entry shows the natural chain unless it says otherwise.
UniProt P06239: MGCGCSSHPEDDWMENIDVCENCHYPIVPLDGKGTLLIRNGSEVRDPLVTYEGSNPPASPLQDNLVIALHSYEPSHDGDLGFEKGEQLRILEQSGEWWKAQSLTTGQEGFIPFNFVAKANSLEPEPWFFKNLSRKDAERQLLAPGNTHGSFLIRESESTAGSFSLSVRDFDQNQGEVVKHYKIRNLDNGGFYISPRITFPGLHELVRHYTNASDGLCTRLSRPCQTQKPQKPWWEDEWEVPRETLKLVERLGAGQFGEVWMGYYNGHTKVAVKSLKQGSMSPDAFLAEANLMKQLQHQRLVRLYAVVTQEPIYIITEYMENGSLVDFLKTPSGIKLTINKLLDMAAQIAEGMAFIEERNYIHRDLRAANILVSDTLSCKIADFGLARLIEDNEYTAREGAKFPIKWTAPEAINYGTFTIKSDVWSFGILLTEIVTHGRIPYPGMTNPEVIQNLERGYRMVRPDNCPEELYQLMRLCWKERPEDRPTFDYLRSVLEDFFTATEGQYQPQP
UniProt P53667: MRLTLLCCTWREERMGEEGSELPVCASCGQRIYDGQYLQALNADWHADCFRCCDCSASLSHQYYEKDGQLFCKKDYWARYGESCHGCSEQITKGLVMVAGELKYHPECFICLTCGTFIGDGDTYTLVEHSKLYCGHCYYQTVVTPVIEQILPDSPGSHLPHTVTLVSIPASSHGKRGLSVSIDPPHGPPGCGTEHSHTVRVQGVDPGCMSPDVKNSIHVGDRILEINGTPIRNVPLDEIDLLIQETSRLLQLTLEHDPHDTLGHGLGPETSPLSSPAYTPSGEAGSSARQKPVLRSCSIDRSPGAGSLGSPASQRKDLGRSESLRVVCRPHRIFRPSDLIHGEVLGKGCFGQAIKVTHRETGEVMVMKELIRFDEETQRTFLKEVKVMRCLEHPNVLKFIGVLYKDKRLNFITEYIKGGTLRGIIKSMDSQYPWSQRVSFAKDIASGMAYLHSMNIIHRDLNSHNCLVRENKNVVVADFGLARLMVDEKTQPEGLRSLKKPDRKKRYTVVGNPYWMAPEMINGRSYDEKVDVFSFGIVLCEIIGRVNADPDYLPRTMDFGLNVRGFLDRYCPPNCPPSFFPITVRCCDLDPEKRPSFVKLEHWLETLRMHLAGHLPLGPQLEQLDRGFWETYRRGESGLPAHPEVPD
UniProt Q8IWU2: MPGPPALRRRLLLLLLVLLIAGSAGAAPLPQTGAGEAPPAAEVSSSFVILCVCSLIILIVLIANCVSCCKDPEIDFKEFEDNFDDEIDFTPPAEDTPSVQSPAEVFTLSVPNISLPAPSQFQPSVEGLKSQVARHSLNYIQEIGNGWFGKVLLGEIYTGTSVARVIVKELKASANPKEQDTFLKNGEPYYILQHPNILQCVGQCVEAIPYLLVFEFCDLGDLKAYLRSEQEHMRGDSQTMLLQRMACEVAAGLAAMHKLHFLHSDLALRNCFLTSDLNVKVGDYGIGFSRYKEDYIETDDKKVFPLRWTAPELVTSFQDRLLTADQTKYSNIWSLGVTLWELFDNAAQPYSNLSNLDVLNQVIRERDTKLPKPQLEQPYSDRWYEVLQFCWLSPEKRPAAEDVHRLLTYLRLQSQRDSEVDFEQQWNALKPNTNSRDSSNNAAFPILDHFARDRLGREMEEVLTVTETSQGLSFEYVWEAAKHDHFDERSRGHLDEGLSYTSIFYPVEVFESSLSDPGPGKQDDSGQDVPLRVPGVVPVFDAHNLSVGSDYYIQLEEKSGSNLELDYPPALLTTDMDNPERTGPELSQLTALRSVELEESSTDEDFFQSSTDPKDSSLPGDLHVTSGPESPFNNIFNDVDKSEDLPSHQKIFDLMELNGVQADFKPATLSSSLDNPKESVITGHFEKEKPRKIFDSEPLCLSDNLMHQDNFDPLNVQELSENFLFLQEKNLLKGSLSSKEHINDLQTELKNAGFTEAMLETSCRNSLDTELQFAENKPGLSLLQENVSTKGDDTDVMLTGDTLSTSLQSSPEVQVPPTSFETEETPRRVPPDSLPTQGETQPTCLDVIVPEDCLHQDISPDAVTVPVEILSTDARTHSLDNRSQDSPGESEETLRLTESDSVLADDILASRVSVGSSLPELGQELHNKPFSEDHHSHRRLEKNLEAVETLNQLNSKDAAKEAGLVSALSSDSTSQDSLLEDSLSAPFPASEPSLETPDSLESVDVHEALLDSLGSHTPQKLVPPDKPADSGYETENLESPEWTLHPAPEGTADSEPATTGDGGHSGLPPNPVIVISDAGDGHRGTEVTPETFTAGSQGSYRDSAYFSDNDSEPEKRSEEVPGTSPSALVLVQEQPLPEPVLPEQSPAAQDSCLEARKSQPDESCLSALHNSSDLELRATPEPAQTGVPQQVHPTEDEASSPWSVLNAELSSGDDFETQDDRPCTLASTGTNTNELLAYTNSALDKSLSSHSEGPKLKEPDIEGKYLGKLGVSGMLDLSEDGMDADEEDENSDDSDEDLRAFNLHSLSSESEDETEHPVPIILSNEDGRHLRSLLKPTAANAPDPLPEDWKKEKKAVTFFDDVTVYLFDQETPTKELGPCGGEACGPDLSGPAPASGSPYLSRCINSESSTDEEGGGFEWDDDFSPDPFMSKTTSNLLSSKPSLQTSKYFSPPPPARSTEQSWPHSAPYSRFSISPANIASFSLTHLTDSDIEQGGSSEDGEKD
UniProt P07948: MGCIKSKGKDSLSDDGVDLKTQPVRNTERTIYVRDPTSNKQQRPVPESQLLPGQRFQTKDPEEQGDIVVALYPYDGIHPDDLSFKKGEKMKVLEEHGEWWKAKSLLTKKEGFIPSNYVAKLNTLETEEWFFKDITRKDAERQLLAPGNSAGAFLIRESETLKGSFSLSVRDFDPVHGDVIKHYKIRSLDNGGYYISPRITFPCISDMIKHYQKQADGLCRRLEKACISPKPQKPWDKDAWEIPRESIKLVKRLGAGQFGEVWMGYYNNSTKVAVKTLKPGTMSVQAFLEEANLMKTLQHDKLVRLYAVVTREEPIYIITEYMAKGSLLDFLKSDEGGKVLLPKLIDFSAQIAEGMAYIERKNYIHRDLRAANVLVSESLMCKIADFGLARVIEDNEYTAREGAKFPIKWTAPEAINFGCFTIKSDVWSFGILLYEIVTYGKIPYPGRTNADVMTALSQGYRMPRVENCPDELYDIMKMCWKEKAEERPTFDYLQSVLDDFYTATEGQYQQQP
UniProt P49137, whole entry, looked up: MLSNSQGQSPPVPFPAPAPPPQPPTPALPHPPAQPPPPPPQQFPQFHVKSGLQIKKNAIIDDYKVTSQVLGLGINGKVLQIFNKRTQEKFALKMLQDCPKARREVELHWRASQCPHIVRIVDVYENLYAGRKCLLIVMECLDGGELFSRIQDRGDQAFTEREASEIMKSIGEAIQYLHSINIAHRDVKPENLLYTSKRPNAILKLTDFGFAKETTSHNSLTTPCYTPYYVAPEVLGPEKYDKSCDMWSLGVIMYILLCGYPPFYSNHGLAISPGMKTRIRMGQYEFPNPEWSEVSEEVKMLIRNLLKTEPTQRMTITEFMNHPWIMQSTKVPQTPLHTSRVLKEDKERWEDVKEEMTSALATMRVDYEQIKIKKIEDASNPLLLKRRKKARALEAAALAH
UniProt Q9BUB5: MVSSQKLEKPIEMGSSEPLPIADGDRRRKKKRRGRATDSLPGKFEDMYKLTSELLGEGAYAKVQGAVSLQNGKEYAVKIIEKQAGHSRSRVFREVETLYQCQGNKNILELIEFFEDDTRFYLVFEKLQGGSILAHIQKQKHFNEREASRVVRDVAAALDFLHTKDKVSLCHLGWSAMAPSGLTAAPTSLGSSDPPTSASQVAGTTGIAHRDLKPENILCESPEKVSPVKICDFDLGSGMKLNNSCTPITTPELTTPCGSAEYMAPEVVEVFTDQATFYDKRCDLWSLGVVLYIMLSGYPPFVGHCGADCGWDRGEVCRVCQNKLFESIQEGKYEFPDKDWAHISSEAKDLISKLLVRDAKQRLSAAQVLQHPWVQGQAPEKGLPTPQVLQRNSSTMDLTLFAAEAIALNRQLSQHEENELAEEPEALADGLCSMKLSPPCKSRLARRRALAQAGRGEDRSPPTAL
UniProt Q16620, whole entry, looked up: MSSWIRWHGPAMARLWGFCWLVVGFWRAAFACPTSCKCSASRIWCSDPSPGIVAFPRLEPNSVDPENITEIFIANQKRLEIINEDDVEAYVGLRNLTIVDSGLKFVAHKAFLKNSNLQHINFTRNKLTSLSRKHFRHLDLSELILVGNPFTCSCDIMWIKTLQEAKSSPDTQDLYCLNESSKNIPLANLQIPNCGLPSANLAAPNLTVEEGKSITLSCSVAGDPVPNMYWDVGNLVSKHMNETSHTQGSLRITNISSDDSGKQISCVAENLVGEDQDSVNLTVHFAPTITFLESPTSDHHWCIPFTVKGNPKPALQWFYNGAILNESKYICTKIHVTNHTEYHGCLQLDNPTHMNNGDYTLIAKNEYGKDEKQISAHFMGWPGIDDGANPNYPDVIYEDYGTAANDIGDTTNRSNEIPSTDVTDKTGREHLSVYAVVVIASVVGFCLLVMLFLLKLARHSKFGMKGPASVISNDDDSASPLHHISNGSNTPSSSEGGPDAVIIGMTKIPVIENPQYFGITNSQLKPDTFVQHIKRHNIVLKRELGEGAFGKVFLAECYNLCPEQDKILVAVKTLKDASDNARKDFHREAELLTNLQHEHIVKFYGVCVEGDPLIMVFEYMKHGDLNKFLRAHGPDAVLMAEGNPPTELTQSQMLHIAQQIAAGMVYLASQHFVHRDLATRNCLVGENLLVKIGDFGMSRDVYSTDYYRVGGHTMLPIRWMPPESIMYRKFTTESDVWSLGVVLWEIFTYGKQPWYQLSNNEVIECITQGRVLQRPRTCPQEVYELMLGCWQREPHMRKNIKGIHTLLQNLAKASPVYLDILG
UniProt P09619, whole entry: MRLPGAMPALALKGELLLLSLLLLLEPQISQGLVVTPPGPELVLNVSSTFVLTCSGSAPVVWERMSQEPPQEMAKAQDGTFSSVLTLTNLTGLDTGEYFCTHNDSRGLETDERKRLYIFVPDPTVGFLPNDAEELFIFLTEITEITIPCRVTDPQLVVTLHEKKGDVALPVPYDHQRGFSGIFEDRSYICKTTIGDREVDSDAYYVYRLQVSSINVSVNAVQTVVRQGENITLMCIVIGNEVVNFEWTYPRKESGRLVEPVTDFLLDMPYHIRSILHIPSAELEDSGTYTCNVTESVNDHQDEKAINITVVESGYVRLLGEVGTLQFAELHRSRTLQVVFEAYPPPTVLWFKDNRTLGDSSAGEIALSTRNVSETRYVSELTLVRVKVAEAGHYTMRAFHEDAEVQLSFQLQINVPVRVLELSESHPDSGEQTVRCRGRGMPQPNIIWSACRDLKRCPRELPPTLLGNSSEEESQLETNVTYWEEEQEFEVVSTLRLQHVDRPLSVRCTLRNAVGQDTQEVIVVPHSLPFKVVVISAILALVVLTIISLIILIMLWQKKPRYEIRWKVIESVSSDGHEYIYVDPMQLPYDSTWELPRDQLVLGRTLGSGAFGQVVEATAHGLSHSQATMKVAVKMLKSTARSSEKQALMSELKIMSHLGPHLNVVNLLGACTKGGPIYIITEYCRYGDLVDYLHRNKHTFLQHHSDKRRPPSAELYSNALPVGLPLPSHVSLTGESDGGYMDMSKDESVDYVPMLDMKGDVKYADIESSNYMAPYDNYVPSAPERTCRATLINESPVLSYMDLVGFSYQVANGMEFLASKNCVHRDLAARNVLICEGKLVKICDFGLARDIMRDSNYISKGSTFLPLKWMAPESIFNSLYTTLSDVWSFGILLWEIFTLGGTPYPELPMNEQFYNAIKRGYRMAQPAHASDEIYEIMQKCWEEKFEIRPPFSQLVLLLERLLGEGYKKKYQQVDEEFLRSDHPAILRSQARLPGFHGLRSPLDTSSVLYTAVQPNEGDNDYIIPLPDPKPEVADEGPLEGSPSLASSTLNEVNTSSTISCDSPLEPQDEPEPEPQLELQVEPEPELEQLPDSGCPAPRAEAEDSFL
UniProt Q15118, whole entry, looked up: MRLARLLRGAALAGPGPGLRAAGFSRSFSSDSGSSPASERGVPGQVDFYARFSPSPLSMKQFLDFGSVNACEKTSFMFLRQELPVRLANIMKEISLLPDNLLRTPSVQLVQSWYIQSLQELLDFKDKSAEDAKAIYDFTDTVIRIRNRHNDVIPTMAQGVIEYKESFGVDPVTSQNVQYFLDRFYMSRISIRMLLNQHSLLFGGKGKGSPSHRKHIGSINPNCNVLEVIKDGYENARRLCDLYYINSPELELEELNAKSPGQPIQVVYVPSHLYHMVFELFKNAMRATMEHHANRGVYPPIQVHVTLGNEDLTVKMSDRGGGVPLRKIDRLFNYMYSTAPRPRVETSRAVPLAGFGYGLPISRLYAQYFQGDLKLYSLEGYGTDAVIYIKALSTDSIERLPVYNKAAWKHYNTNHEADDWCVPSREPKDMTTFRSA

Legend:
Experiment in all cases: kinase-Nluc reporter destabilization hit call (1 = scored as downregulated) (binary); higher = compound decreases kinase abundance
Settings in all cases: K562; 2-18 h
IRAK3 = IRAK3 (UniProt Q9Y616)
JAK1 = JAK1 (UniProt P23458)
LCK = LCK (UniProt P06239)
LIMK1 = LIMK1 (UniProt P53667)
LIMK2 = LIMK2 (UniProt P53671)
LMTK2 = LMTK2 (UniProt Q8IWU2)
LYN = LYN (UniProt P07948)
MAP2K1 = MAP2K1 (UniProt Q02750)
MAP2K2 = MAP2K2 (UniProt P36507)
MAP4K2 = MAP4K2 (UniProt Q12851)
MAPK1 = MAPK1 (UniProt P28482)
MAPK4 = MAPK4 (UniProt P31152)
MAPKAPK2 = MAPKAPK2 (UniProt P49137)
MKNK1 = MKNK1 (UniProt Q9BUB5)
NTRK2 = NTRK2 (UniProt Q16620)
NTRK3 = NTRK3 (UniProt Q16288)
PAK4 = PAK4 (UniProt O96013)
PBK = PBK (UniProt Q96KB5)
PDGFRB = PDGFRB (UniProt P09619)
PDK1 = PDK1 (UniProt Q15118)

Measured: kinase-Nluc reporter destabilization hit call

COc1ccc(Cl)cc1N(CC(=O)Nc1ccc2c(c1)OCO2)S(=O)(=O)c1ccccc1 (2.5 µM)
inactive: IRAK3 = 0 | JAK1 = 0 | LCK 0 | LIMK1 = 0 | LIMK2 = 0 | LMTK2 = 0 | LYN 0 | MAP2K1 = 0 | MAP2K2 = 0 | MAP4K2 = 0 | MAPK1 = 0 | MAPK4 = 0 | MAPKAPK2 = 0 | MKNK1 = 0 | NTRK2 = 0 | NTRK3 = 0 | PAK4 = 0 | PBK 0 | PDGFRB 0 | PDK1 = 0

CN(C)c1ccc(/C=C2\C(=O)Nc3ccccc32)c2ccccc12 (10 µM)
inactive: IRAK3 = 0 | JAK1 = 0 | LCK 0 | LIMK1 = 0 | LIMK2 = 0 | LMTK2 = 0 | LYN 0 | MAP2K1 = 0 | MAP2K2 = 0 | MAP4K2 = 0 | MAPK1 = 0 | MAPK4 = 0 | MAPKAPK2 = 0 | MKNK1 = 0 | NTRK2 = 0 | NTRK3 = 0 | PAK4 = 0 | PBK 0 | PDGFRB 0 | PDK1 = 0

Oc1ccc(-c2cnc3ccc(NCc4ccco4)nn23)cc1 [IRAK inhibitor 2] (2.5 µM)
inactive: IRAK3 = 0 | JAK1 = 0 | LCK 0 | LIMK1 = 0 | LIMK2 = 0 | LMTK2 = 0 | LYN 0 | MAP2K1 = 0 | MAP2K2 = 0 | MAP4K2 = 0 | MAPK1 = 0 | MAPK4 = 0 | MAPKAPK2 = 0 | MKNK1 = 0 | NTRK2 = 0 | NTRK3 = 0 | PAK4 = 0 | PBK 0 | PDGFRB 0 | PDK1 = 0

Pulled one by one from the entries so far, 2 records:
COc1ccc(Cl)cc1N(CC(=O)Nc1ccc2c(c1)OCO2)S(=O)(=O)c1ccccc1 (2.5 µM)
inactive: IRAK3 = 0 | JAK1 = 0 | LCK 0 | LIMK1 = 0 | LIMK2 = 0 | LMTK2 = 0 | LYN 0 | MAP2K1 = 0 | MAP2K2 = 0 | MAP4K2 = 0 | MAPK1 = 0 | MAPK4 = 0 | MAPKAPK2 = 0 | MKNK1 = 0 | NTRK2 = 0 | NTRK3 = 0 | PAK4 = 0 | PBK 0 | PDGFRB 0 | PDK1 = 0

CN(C)c1ccc(/C=C2\C(=O)Nc3ccccc32)c2ccccc12 (10 µM)
inactive: IRAK3 = 0 | JAK1 = 0 | LCK 0 | LIMK1 = 0 | LIMK2 = 0 | LMTK2 = 0 | LYN 0 | MAP2K1 = 0 | MAP2K2 = 0 | MAP4K2 = 0 | MAPK1 = 0 | MAPK4 = 0 | MAPKAPK2 = 0 | MKNK1 = 0 | NTRK2 = 0 | NTRK3 = 0 | PAK4 = 0 | PBK 0 | PDGFRB 0 | PDK1 = 0

Next part.

CC/C(=C(\c1ccccc1)c1ccc(OCCNC)cc1)c1ccccc1 [N-Desmethyltamoxifen (hydrochloride)] (2.5 µM)
inactive: IRAK3 = 0 | JAK1 = 0 | LCK 0 | LIMK1 = 0 | LIMK2 = 0 | LMTK2 = 0 | LYN 0 | MAP2K1 = 0 | MAP2K2 = 0 | MAP4K2 = 0 | MAPK1 = 0 | MAPK4 = 0 | MAPKAPK2 = 0 | MKNK1 = 0 | NTRK2 = 0 | NTRK3 = 0 | PAK4 = 0 | PBK 0 | PDGFRB 0 | PDK1 = 0

Cn1cc(C2=C(c3ccc(Cl)cc3Cl)C(=O)NC2=O)c2ccccc21 (10 µM)
inactive: IRAK3 = 0 | JAK1 = 0 | LCK 0 | LIMK1 = 0 | LIMK2 = 0 | LMTK2 = 0 | LYN 0 | MAP2K1 = 0 | MAP2K2 = 0 | MAP4K2 = 0 | MAPK1 = 0 | MAPK4 = 0 | MAPKAPK2 = 0 | MKNK1 = 0 | NTRK3 = 0 | PAK4 = 0 | PBK 0 | PDGFRB 0 | PDK1 = 0

CC(=O)O[C@@H]1[C@@H](OC(C)=O)[C@@H](O)[C@H](Oc2c(-c3ccc(O)cc3)oc3cc(O)cc(O)c3c2=O)O[C@H]1C (10 µM)
inactive: IRAK3 = 0 | JAK1 = 0 | LCK 0 | LIMK1 = 0 | LIMK2 = 0 | LMTK2 = 0 | LYN 0 | MAP2K1 = 0 | MAP2K2 = 0 | MAP4K2 = 0 | MAPK1 = 0 | MAPK4 = 0 | MAPKAPK2 = 0 | MKNK1 = 0 | NTRK3 = 0 | PAK4 = 0 | PBK 0 | PDGFRB 0 | PDK1 = 0

NCCNS(=O)(=O)c1ccc(Cl)c2ccncc12 [CKI-7 (free base)] (10 µM)
inactive: IRAK3 = 0 | JAK1 = 0 | LCK 0 | LIMK1 = 0 | LIMK2 = 0 | LMTK2 = 0 | LYN 0 | MAP2K1 = 0 | MAP2K2 = 0 | MAP4K2 = 0 | MAPK1 = 0 | MAPK4 = 0 | MAPKAPK2 = 0 | MKNK1 = 0 | NTRK2 = 0 | NTRK3 = 0 | PAK4 = 0 | PBK 0 | PDGFRB 0 | PDK1 = 0

COc1cc(N2CCC(N3CCN(C)CC3)CC2)ccc1Nc1ncnc(Nc2ccccc2S(=O)(=O)C(C)C)n1 (10 µM)
inactive: IRAK3 = 0 | JAK1 = 0 | LCK 0 | LIMK1 = 0 | LIMK2 = 0 | LMTK2 = 0 | LYN 0 | MAP2K1 = 0 | MAP2K2 = 0 | MAP4K2 = 0 | MAPK1 = 0 | MAPK4 = 0 | MAPKAPK2 = 0 | MKNK1 = 0 | NTRK3 = 0 | PAK4 = 0 | PBK 0 | PDGFRB 0 | PDK1 = 0

O=C(Nc1ccccc1C(=O)NC1CCCCNC1=O)c1cc2ccccc2s1 (stereo not drawn) (10 µM)
inactive: IRAK3 = 0 | JAK1 = 0 | LCK 0 | LIMK1 = 0 | LIMK2 = 0 | LMTK2 = 0 | LYN 0 | MAP2K1 = 0 | MAP2K2 = 0 | MAP4K2 = 0 | MAPK1 = 0 | MAPK4 = 0 | MAPKAPK2 = 0 | MKNK1 = 0 | NTRK3 = 0 | PAK4 = 0 | PBK 0 | PDGFRB 0 | PDK1 = 0

COc1cc2c(cc1OC)[C@@H]1C(=O)c3ccc4c(c3O[C@@H]1CO2)C=CC(C)(C)O4 [Deguelin] (10 µM)
inactive: IRAK3 = 0 | JAK1 = 0 | LCK 0 | LIMK1 = 0 | LIMK2 = 0 | LMTK2 = 0 | LYN 0 | MAP2K1 = 0 | MAP2K2 = 0 | MAP4K2 = 0 | MAPK1 = 0 | MAPK4 = 0 | MAPKAPK2 = 0 | MKNK1 = 0 | NTRK3 = 0 | PAK4 = 0 | PBK 0 | PDGFRB 0 | PDK1 = 0

Cc1cccc(CC(=O)N2CCc3c2ccc(-c2cn(C)c4ncnc(N)c24)c3F)n1 (10 µM)
inactive: IRAK3 = 0 | JAK1 = 0 | LCK 0 | LIMK1 = 0 | LIMK2 = 0 | LMTK2 = 0 | LYN 0 | MAP2K1 = 0 | MAP2K2 = 0 | MAP4K2 = 0 | MAPK1 = 0 | MAPK4 = 0 | MAPKAPK2 = 0 | MKNK1 = 0 | NTRK3 = 0 | PAK4 = 0 | PBK 0 | PDGFRB 0 | PDK1 = 0

COC(=O)N1CCN(C2CCC(Nc3nc(Nc4cnn(C)c4)nc4ccc(CC#N)nc34)CC2)CC1 (stereo not drawn) (10 µM)
inactive: IRAK3 = 0 | JAK1 = 0 | LCK 0 | LIMK1 = 0 | LIMK2 = 0 | LMTK2 = 0 | LYN 0 | MAP2K1 = 0 | MAP2K2 = 0 | MAP4K2 = 0 | MAPK1 = 0 | MAPK4 = 0 | MAPKAPK2 = 0 | MKNK1 = 0 | NTRK3 = 0 | PAK4 = 0 | PBK 0 | PDGFRB 0 | PDK1 = 0
